Experimental data from the supplement of paper PMC3334620.
In all, about 33,000 sequences were measured (“E-score (-0.5 to 0.5)”: median about -0.0014, highest 2% from about 0.25 on). The list shows a part of the results.

These sequences were tested against T1, Cad1 (UniProt P24813) (assay: PBM E-score (8-mer binding enrichment) (E-score (-0.5 to 0.5)); higher = stronger / more preferred TF binding). Details: protein concentration: 100 nM; construct: GST-full length.
T1 sequence: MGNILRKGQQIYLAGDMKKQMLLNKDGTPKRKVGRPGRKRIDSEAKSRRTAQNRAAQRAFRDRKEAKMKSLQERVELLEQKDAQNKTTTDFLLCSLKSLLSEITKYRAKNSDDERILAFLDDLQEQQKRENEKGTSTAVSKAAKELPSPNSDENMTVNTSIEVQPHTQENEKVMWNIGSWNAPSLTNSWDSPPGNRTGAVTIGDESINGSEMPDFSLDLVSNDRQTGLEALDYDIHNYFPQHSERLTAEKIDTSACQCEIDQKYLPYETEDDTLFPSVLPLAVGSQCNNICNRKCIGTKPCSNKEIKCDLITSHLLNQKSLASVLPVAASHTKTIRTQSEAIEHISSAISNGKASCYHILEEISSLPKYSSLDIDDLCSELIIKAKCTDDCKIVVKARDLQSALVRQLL
Summary of the method: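 Full-length yeast transcription factors or their DNA-binding domains, GST-tagged and expressed with PURExpress, were applied at about 100-200 nM to universal all-10-mer Agilent arrays. These arrays had been made double-stranded by primer extension on fresh or once-stripped slides. Detection used fluorescent anti-GST, normalisation used masliner, and E-scores for ungapped eight-base words pooled with reverse complements came from the Universal PBM Analysis Suite.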

Row | Sequence | PBM E-score
1 | CGAAACTA | 0.188
2 | GGTCATGA | 0.012
3 | CAGGTGAC | -0.0103
4 | CGGTCCTC | -0.175
5 | CTCATAAA | 0.117
6 | ATACCTGA | 0.0917
7 | CCTAGACA | -0.213
8 | CGATTTGC | -0.00647
9 | ATCTAGAG | -0.138
10 | AGGCCCCG | -0.329
11 | ATCTATGA | 0.0449
12 | AGTGCAAT | 0.0198
13 | CCTCGCGC | 0.0362
14 | ACCTCATA | 0.0477
15 | AGAGCTCA | -0.0162
16 | CTCGTGTA | -0.0344
17 | GGAGGTAA | 0.0007
18 | GCGATCGC | 0.241
19 | ATGTGTAG | 0.00894
20 | GATCAGTA | 0.135
21 | AATTTTGA | 0.173
22 | CCAAGGAA | -0.227
23 | AGACTTTG | 0.00736
24 | AGGGGGGG | -0.429

Copied from the list.
GCGATCGC – PBM E-score: 0.241
GGTCATGA – PBM E-score: 0.012
AGACTTTG – PBM E-score: 0.00736
AATTTTGA – PBM E-score: 0.173
AGAGCTCA – PBM E-score: -0.0162
CCTAGACA – PBM E-score: -0.213

Carrying on:

Row | Sequence | PBM E-score
25 | ACTGCTAG | -0.218
26 | CCCGTCGA | -0.116
27 | GATAAAAA | 0.139
28 | ACTATGGA | -0.179
29 | AAAGTGTC | 0.0307
30 | CCAAGTAG | -0.189
31 | CCTGGTCG | -0.0156
32 | CGAGATTC | 0.1
33 | CGTCCCTA | -0.123
34 | CTGGCTGC | -0.0751
35 | CATGATAC | 0.214
36 | ATTTTTTC | 0.164
37 | ATATACTG | 0.2
38 | AGGCAAGC | 0.0192
39 | CGAATGAA | -0.0631
40 | CTTTTGCC | -0.0265
41 | GGACAGCA | 0.0394
42 | ATTTCCTG | 0.233
43 | GAGACCCC | -0.191
44 | CCCCAAGG | -0.307
45 | CTGCTTCA | -0.144
46 | CAAAATTA | 0.187
47 | AAATCCAC | 0.0208
48 | GTTGCACA | 0.085

Row | Sequence | PBM E-score
49 | CCAACTGA | -0.138
50 | CGTCATAA | 0.0866
51 | AAACATGT | 0.00798
52 | GTACGATA | -0.154
53 | AACGTTTA | 0.0236
54 | GCCACTCC | -0.203
55 | ATGAGAGG | -0.196
56 | ATTCACAG | -0.0301
57 | ACGAAGAA | 0.1
58 | AGCCCGTA | -0.244
59 | AGAGCTTG | -0.0589
60 | CCCGTCGC | 0.00364
61 | AAACACCC | 0.168
62 | ACGGAATA | 0.198
63 | ACGCCGGA | -0.0391
64 | AAGACGGC | 0.0515
65 | GAGTGCAA | 0.159
66 | GAATCTAC | -0.0606
67 | ACCGTTCT | -0.139
68 | CTTAGTTC | -0.057
69 | CGCAATGC | -0.0287
70 | ACCACAGT | 0.24
71 | ATGTTATG | 0.229
72 | TCAAAGGA | -0.105

Row | Sequence | PBM E-score
73 | CGCAGTGA | 0.0792
74 | CAGGACCC | -0.182
75 | GTAGATAC | 0.0201
76 | CACCACTA | 0.106
77 | CCAGGACG | 0.00417
78 | GCAGGTCC | 0.0536
79 | CCACGAAC | 0.127
80 | ACATGACG | -0.0713
81 | ATTGTAAC | 0.162
82 | AAGTTACG | 0.0736
83 | GCAGAAAC | 0.208
84 | AGATCGCG | 0.113
85 | GCTAGATA | 0.14
86 | GACACGCA | 0.117
87 | ACTAAAAG | -0.0602
88 | CTAAGAGA | -0.0535
89 | GTATGGTA | 0.0453
90 | TATAGTCA | 0.165
91 | CCAGACTC | -0.091
92 | AAGCTGAG | 0.064
93 | GAGAGCAC | -0.186
94 | GACAGTAC | 0.116
